Assay results as given in paper PMC5295445.
Results are given in words; binding and its absence hold for the method and conditions named. Binding seen in cells or lysates may run through a third protein. Some entries that bind do so weakly or less than the wild type. For some assays here: Sequences can lack the tags named with a protein.

Sequences of proteins named here, by UniProt entry; tags and fusion partners are left off.
UniProt Q13616: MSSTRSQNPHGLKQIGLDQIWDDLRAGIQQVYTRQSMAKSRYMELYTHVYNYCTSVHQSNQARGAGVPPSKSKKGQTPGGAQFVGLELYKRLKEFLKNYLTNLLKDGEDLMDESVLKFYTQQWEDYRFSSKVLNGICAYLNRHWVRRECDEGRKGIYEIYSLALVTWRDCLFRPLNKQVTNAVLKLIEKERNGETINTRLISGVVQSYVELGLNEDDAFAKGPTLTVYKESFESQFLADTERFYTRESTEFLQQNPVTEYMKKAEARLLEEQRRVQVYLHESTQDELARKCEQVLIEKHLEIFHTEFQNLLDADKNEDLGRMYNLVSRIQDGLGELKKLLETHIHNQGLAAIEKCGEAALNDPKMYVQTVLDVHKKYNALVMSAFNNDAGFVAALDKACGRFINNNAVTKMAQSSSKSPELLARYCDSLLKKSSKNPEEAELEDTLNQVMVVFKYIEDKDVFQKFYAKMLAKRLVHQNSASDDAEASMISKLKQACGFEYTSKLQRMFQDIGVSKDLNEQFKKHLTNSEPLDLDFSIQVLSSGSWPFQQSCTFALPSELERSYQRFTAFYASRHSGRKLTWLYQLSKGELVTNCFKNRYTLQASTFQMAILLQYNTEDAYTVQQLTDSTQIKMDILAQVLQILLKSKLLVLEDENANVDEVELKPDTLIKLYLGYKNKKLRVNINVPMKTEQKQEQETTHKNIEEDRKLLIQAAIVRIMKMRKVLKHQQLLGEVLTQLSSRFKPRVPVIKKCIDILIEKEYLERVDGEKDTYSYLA

B1: myc-DCUN1D3 (protein, UniProt Q8IWE4 1-304)
chain: MGQCVTKCKNPSSTLGSKNGDREPSNKSHSRRGAGHREEQVPPCGKPGGDILVNGTKKAEAATEACQLPTSSGDAGRESKSNAEESSLQRLEELFRRYKDEREDAILEEGMERFCNDLCVDPTEFRVLLLAWKFQAATMCKFTRKEFFDGCKAISADSIDGICARFPSLLTEAKQEDKFKDLYRFTFQFGLDSEEGQRSLHREIAIALWKLVFTQNNPPVLDQWLNFLTENPSGIKGISRDTWNMFLNFTQVIGPDLSNYSEDEAWPSLFDTFVEWEMERRKREGEGRGALSSGPEGLCPEEQT
B2: endogenous DCUN1D3 (protein, UniProt Q8IWE4 1-304)
chain: B1 chain

What was measured:
Flag-CUL1 = Flag-CUL1 (UniProt Q13616); experiment: co-IP; HeLa cells cotransfected with two tagged proteins; total cell extracts precipitated with anti-tag antibody (anti-Flag or anti-HA) and protein G sepharose overnight at 4°C, Western blot for the other tag
[1] = target: endogenous CUL1 (human (endogenous in HeLa)) (UniProt Q13616); experiment: co-IP; endogenous proteins in HeLa total cell extracts; IP with antibody to one partner or control IgG, Western blot for the other

binding (Flag-CUL1)	binding [1]	Binder
binds	–	B1
–	binds	B2
